This test addresses LdcCA (Leishmania infantum, UniProt A4HSV2). Nature of the test: biochemical. To be noted: stopped flow CO2 hydrase assay, mean from three assays; read-out: KI LdCA.

Sequences of proteins named here, by UniProt entry; tags and fusion partners are left off. Residues count along the entry.
UniProt A4HSV2, 1-306: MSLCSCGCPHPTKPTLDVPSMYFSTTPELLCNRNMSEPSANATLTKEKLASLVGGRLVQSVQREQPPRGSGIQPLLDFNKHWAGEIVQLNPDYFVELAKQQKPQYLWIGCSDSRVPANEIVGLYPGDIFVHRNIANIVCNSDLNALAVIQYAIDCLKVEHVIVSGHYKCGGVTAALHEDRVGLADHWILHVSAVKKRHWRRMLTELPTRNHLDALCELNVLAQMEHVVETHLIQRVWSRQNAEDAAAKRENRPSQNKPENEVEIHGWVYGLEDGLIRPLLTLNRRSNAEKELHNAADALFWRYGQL

Here are results for 1 compound from publication PMC6598531, “Appraisal of anti-protozoan activity of nitroaromatic benzenesulfonamides inhibiting carbonic anhydrases from Trypanosoma cruzi and Leishmania donovani” (Journal of Enzyme Inhibition and Medicinal Chemistry, 2019).

pKi: −log10 of the molar value.

Broadly, the pKi is the negative decadic logarithm of the Ki, by convention in mol/L. In the case of `CC(=O)Nc1nnc(S(N)(=O)=O)s1` [AAZ, acetazolamide, reference compound], the pKi was 7.05.
